Measured values: paper PMC10621170
Results are given in words; binding and its absence hold for the method and conditions named. Binding seen in cells or lysates may run through a third protein. Some entries that bind do so weakly or less than the wild type.

Protein sequences, listed by entry. Tags and fused reporters are not part of them.
UniProt O75461: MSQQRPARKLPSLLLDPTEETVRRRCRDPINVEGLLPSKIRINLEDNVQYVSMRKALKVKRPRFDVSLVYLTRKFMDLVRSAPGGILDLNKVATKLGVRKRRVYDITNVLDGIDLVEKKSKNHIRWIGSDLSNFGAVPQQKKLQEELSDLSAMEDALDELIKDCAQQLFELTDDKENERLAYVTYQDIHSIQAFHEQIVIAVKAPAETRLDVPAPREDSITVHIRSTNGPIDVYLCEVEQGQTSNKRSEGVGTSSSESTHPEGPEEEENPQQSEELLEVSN

Assays:
[1] = biological target: T1, NBR1 (human (endogenous in Eca-109/PECC)) (UniProt Q14596); test: co-IP; lysates of control, LINC01592-knockdown and LINC01592-overexpressing cells (also with the mutant ΔLINC01592, Fig. S7G); which protein was precipitated not given
T1 sequence: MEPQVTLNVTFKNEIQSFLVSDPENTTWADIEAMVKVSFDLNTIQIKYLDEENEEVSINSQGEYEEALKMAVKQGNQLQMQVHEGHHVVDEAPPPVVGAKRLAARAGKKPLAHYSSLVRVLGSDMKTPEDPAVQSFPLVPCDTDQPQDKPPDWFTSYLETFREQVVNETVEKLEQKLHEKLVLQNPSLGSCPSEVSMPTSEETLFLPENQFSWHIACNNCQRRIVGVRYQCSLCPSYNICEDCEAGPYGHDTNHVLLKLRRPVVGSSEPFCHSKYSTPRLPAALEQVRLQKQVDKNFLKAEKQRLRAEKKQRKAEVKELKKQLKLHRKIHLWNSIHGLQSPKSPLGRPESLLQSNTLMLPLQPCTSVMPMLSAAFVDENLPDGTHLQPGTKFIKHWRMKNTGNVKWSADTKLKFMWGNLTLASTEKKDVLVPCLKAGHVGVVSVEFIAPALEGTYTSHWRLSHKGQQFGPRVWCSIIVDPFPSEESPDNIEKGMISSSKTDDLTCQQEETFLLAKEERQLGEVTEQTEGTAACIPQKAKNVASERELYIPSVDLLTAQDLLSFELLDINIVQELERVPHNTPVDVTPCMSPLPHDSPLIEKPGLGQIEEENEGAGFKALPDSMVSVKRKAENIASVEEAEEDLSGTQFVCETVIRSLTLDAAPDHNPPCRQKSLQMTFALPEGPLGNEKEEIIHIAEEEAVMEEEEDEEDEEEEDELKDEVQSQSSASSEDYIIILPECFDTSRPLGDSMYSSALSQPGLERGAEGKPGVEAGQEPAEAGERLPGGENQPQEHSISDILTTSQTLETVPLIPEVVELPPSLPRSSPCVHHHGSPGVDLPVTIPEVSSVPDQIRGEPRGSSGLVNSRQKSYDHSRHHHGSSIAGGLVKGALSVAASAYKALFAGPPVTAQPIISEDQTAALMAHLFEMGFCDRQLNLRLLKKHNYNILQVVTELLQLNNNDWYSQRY

[2] = biological target: T1, NBR1 (human (endogenous in Eca-109/PECC)); test: proximity ligation; Duolink In Situ Red kit Mouse/Rabbit; cells fixed in 4% paraformaldehyde, permeabilised with 0.1% Triton X-100; antibodies to E2F6 and NBR1 overnight at 4 °C; control, LINC01592-knockdown and LINC01592-overexpressing cells

For E2F6 (from UniProt O75461 1-281), the binding [1] was “binds” and the binding [2] was “binds”.
